# Laboratory results: PMC4604688
# The chains behind the UniProt entries cited, without tags or fusion partners.
# UniProt P19447: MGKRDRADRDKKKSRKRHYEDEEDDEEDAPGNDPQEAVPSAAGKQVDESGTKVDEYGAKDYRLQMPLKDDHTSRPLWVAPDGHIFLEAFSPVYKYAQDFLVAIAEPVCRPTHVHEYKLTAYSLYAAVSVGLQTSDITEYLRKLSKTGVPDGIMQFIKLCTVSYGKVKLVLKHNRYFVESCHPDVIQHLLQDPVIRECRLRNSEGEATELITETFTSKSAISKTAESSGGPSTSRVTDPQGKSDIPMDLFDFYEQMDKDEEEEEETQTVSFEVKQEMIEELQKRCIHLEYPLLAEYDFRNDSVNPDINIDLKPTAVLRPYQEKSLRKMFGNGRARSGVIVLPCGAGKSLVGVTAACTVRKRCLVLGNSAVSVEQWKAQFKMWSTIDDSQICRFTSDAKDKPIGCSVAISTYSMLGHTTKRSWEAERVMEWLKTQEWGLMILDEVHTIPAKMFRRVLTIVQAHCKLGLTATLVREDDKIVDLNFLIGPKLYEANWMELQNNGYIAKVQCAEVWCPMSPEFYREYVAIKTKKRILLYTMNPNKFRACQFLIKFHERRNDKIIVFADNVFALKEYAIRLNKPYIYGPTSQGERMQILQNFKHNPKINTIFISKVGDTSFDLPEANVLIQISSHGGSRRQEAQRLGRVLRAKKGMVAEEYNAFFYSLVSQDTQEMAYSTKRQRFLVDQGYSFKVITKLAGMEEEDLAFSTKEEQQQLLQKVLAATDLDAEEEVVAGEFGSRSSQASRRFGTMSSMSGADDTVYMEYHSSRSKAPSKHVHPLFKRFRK
# These are yes or no findings as the source states them, for the method shown. In cells and extracts the contact can be indirect. Some binding calls cover weakened binding; strength is not graded here.
# Tests used:
# [1] = molecular target: p53 (endogenous, p53 wt/wt HCT116) (human (endogenous in HCT116)) (UniProt P04637); assay: co-IP; p53 precipitated from cells with scrambled control siRNA, treated for 1 h with 300 μM 5-FU; blot for p38
# [2] = molecular target: p53 (endogenous, p53 wt/wt HCT116) (human (endogenous in HCT116)) (UniProt P04637); assay: co-IP; p53 precipitated from cells with scrambled control siRNA, treated for 4 or 8 h with 300 μM 5-FU; blot for XPB
Substance,binding [1],binding [2]
p38α kinase (from UniProt Q16539 1-360) (enzyme),binds,–
"XPB (DNA helicase of the nucleotide excision repair machinery, component of TFIIH) (from UniProt P19447 1-782) (enzyme)",–,binds
